In assay [1] the target is His-tagged GlnZ (A. brasilense) (UniProt P70731). Nature of the assay: pull-down; 20 μg purified His-GlnZ immobilised on magnetic Ni2+ beads (MagneHis), mixed with 20 μg of partially purified or purified protein; 50 mM Tris-HCl pH 8, 0.1 M NaCl, 10% glycerol, 20 mM imidazole, 5 mM MgCl2, with 1 mM ADP, 1 mM ATP or 1 mM ATP + 1.5 mM 2-OG; SDS-PAGE, Coomassie; 2-OG reduced copurification; both purified.

Amino acid sequences for entries named in this document (tags omitted).
UniProt P70731: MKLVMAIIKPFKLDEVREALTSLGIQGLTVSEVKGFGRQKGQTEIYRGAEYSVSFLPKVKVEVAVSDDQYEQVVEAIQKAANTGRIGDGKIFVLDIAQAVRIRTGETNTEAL
UniProt A0A0N7I832: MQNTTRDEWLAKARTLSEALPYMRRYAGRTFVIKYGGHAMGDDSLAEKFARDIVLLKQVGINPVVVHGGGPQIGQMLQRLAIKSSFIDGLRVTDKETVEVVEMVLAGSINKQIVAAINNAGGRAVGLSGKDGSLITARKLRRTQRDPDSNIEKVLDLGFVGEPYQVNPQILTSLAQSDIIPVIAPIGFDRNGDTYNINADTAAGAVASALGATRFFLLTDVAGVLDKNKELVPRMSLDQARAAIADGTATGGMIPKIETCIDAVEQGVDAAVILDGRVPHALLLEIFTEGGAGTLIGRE

Assay [2] shares this target. The description is as above. The source holds these as a separate data set.
For assay [3] the target is unchanged. The assay is described as follows: pull-down; 20 μg purified His-GlnZ immobilised on magnetic Ni2+ beads (MagneHis), mixed with E. coli cell extract overexpressing the recombinant protein (100 μl in Fig. S1); 50 mM Tris-HCl pH 8, 0.1 M NaCl, 10% glycerol, 20 mM imidazole, 5 mM MgCl2, with 1 mM ADP, 1 mM ATP or 1 mM ATP + 1.5 mM 2-OG; SDS-PAGE, Coomassie; 2-OG reduced copurification; only the target purified.

Results are given in words; binding and its absence hold for the method and conditions named. For some assays here: In cells and extracts the contact can be indirect. Some entries that bind do so weakly or less than the wild type.

With “NAGK (G8AI64), recombinant (from UniProt A0A0N7I832 1-299) (enzyme)”, the binding result in assay [1] was “binds”.

B1: ATase, glutamine synthetase adenylyltransferase (A7Y9V0), recombinant (enzyme, UniProt A0A0P0F2U7 1-1005)
chain: MTTTLPKPFDTGLAERGLERWRAEAANAADNDGNNDGDSTGDALRAWAEAYADSAEGRALIDAVCGNSPYLGQILTRELPFVREMVTRGYDDAFATLLRRLEADCAEERNIDRLMTALRIAKRRAALLIAIADITGAWELEAVTGALSDIAETSVRMAANHLLRRAAEAGTLTLPEPQRPWVGSGLIVLGMGKLGARELNYSSDIDLIVLYDDAVVQTPQPDNLARTFIRIARDLVRIMDERTKDGYVFRTDLRLRPDPGATPLAVSVSAAEIYYGSVGQNWERAAMIKARPIAGDPEAGAHFLRFLEPFVWRRHLDFAAIQDIHSIKRQINAHKGHREVTVNGHDIKVGRGGIREIEFFAQTQQLIFGGRDIRVRIAPTLLANKALCAVGRVPEAAVEELEEAYRFLRRVEHRIQMTDDRQTHQIPADDEGVAHLATFLGYAQVEDFRADLLAQLGRVEDRYAELFEEAPSLSGPGNLVFTGTDDDPGTVKTLAGMGYRDPSRVIAVVSTWHRGRYRSTRSGRARELLTELVPAMLNELAKTPAPDDALVKFDSFLERLPAGVGLFSLFIANPWLLALVAEIMGTAPQLAETLSRNPSLLDAVLSPDFFDPLPDAAGLTPEYQRFIAGAHNFEDVLTLSRRWTNDQRFRAGAHILRGITDGDHCGPFLADLADVVVPELAARVEEEFATRHGRIPGGAWVVVAMGKLGSRQLTITSDIDLIVVYEVPPGTRQSDGTKPLAPNEYYIKLTQRLTNAITAPMADGRLYEVDMRLRPSGNAGPLATALDAFTAYQAKDAWTWEHMALTRARVIGGDPPLGHKVESAIRGVLTGPRDPAKVLRDVADMRRRIDKEFGTANPWNVKYARGGLIDIEFTAQYLQLRHGHAHPEILSIATSRALLNAAAAGLLAPEVAEELAATLKLWRRVQGFLRLTTDGVLDPRQVSPTLREGLSRAAFPDEEPAVDFAALDSRIRDIAARAHRHFVALVEEPASRLPPPETNEEAKLP
As to B1, in assay [2], the binding entry is “binds”.

B2: TrkA (G8AQ29), recombinant (protein, UniProt A0A0P0EHA2 1-458)
chain: MKVIVCGAGQVGSNIARYLASEGNNVTVIDHSPELIQRISDTLDVQAMVGHASHPDVLEAAGAGETDMIIAVTQIDEINMVACEVAHALFKVPTKIARVRNQSYLKPIWADLFSRDHMPIDVIISPEIAVARAIARRLQVPGAFDMIPLADGKVRVVGVLCTETCPVLHTPLRQLTGLFPDLGLEVVAIIRNDRSFIPGGDDQMLPGDEVYFACDNRHLNRAMSAFGHEEVEARRIIILGGGNIGLCLAEELEAKYPHVTARIIEMNRSRAQYVAQRLSRTMVLHGDGLDPEILEEANVRATETVVAVTNDDEGNILSSLLAKRHGAKRAITLINKASYTSLVSPLGIDAVVSPRAITVSNILQHVRRGRIRAVHSLRDGFAEVIEAEALETSAVVNTPLREVKLPSGVIVGAIVRGDEVIVPRPATVIRPKDRVVILATAGQVKKVEKMFAVRLEFF
For B2, in assay [2], the binding result is on record as “binds”.

B3: Rho (G8AG60), recombinant (protein, UniProt A0A560CHF0 1-418)
chain: MHLQELKCKSPAELLAFAEELQIENASTLRKQDMMFAILKQLAENDVPIYGDGVLEVLQDGFGFLRSPEANYLPGPDDIYVSPSQVRRFSLRTGDTVEGQIRAPKDGERYFALLKVNTINFDAPDKVRHRINFDNLTPLYPEERLRMEVDDPTKKNYTGRIIDLVAPLGKGQRGLIVAPPRTGKTVMLQNIAHSIATNHPEAYLIVLLIDERPEEVTDMARSVRGEVISSTFDEPATRHVQVAEMVIEKAKRLVEHKRDVVILLDSITRLARAYNTVVPSSGKVLTGGVDANALQRPKRFFGAARNIEEGGSLTIIATALIDTGSRMDEVIFEEFKGTGNSEIVLDRKLSDKRTFPAIDISKSGTRKEELLVDKGTISKMWILRRILMPMGVTDAVDFLVDKLKHTKSNSEFFESMNQ
Take B3: the binding result in assay [3] is “binds”.

B4: RPH, RNase PH (G8AGG4), recombinant (enzyme, UniProt A0A4D8QJU4 1-239)
chain: MRPSGRAHDQLRTISLEPHFSKHAEGSCLVRFGDTHVLCTASVDEGVPRFLKNTGLGWVTAEYGMLPRSTHSRTDREAAKGKQSGRTQEIQRLIGRALRAVTDRAAMGEKQIKIDCDVIQADGGTRTAAITGSFVALHLAFQHLMQIGALKTMPLTDHVAAVSCGIYKNTSVLDLDYAEDSTAQADANFVLTGQGGIVEVQGTAEERPFSEPQFMELLALARKGIDELVALQKAAIAVK
In the case of B4, in assay [2], the binding entry is “binds”.

Values taken from PMC7646526.
